Some of the results follow. Values are raw readings; no control value is given beside them.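 Primary screen: polymyxin B was added at a level permeabilizing Salmonella outer membranes while sparing inner membranes. DMSO wells, both with and without polymyxin B, established maximum growth. Plate-to-plate variation meant each plate was ranked on its own, and the lowest-OD600 compounds were selected as hits.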
Test system: Salmonella enterica serovar Typhimurium SL1344
Experiment: bacterial growth OD600 after 18 h with compound and polymyxin B; higher = more bacterial growth (less inhibition)
Settings: 50 µM, Mueller-Hinton broth

COC(c1ccc2c(c1)CN(C(=O)c1scc3c1OCCO3)CCO2)C1CCCCC1 (centres undefined)
bacterial growth OD600 (polymyxin B 0.75 µg/mL): -0.002

O=C(CCC1CCN(CCCC(F)(F)F)CC1)Nc1ccccc1Cl
bacterial growth OD600 (polymyxin B 0.75 µg/mL): 0.869

COCC1CCCCN1Cc1c[nH]nc1-c1ccc2cc(OC)ccc2c1 (centres undefined)
bacterial growth OD600 (polymyxin B 1 µg/mL): 0.859

COc1ccc2ccccc2c1CNCc1cccnc1N1CCCC(O)C1 (centres undefined)
bacterial growth OD600 (polymyxin B 1 µg/mL): 0.944

CN(CCc1ccccn1)[C@@H]1CCN(CC(C)(C)CN2CCOCC2)C[C@H]1O
bacterial growth OD600 (polymyxin B 0.75 µg/mL): 0.872

C/C=C(\C)C(=O)N1CCC(C2(c3ccccn3)NC(=O)N(CCc3cccs3)C2=O)CC1 (centres undefined)
bacterial growth OD600 (polymyxin B 0.75 µg/mL): 0.884

C=C(C)CN(CC)Cc1nc(-c2ccc(C(F)(F)F)cc2)oc1C
bacterial growth OD600 (polymyxin B 1 µg/mL): 0.611

COc1ccc(C(CC(=O)N2CCCCCC2)c2ccccc2)cc1 (centres undefined)
bacterial growth OD600 (polymyxin B 1 µg/mL): 0.01

Cn1cc(/C=C/C(=O)N2CCCC(C(=O)c3cccc(C(F)(F)F)c3)C2)cn1 (centres undefined)
bacterial growth OD600 (polymyxin B 1 µg/mL): 0.928

From the supplement of paper PMC12889115
